In the supplement of paper PMC11409438:
Some of the results follow. Single values are uncertain, as repeats are few or missing.

tested on: Caenorhabditis elegans ST65 (ncIs13[ajm-1::GFP]); assay: 'Larvae/adult' ratio (MetaXpress pharynx counts; minimum value 1, so it appears to include adults; growth inhibition read-out); details: 10 µM; exposure time: 4-5 days from L1 at 20°C

| Compound | 'Larvae/adult' ratio |
| --- | --- |
| NC(=O)c1cnc2[nH]ccc2c1N[C@@H]1[C@@H]2CC3C[C@H]1C[C@@](O)(C3)C2 | 2 |
| CCC(C)n1ncn(-c2ccc(N3CCN(c4ccc(OCC5COC(Cn6cncn6)(c6ccc(Cl)cc6Cl)O5)cc4)CC3)cc2)c1=O (stereo unspecified) [Itraconazole] | 2.5 |
| COc1cc2ncnc(Oc3cccc(NC(=O)Nc4cc(C(C)(C)C(F)(F)F)on4)c3)c2cc1OC | 1.61 |
| Cc1cc2c(C(=O)NC[C@H](C)c3ccccc3)c(O)c(O)cc2c(O)c1-c1c(C)cc2c(C(=O)NC[C@H](C)c3ccccc3)c(O)c(O)cc2c1O [Sabutoclax] | 2.81 |
| CN1CCc2c(c3ccccc3n2Cc2ccc(C(=O)NO)cc2)C1 [Tubastatin A] | 2.44 |
| COC(=O)C[C@](O)(CCCC(C)(C)O)C(=O)O[C@@H]1C(OC)=C[C@]23CCCN2CCc2cc4c(cc2[C@H]13)OCO4 [Homoharringtonine] | 2.44 |
| C[C@@H](Oc1ccc2[nH]nc(/C=C/c3cnn(CCO)c3)c2c1)c1c(Cl)cncc1Cl | 2.15 |
| CC[C@H](Nc1ncnc2[nH]cnc12)c1nc2cccc(F)c2c(=O)n1-c1ccccc1 [Idelalisib (CAL-101, GS-1101)] | 2.3 |
| N#CC[C@H](C1CCCC1)n1cc(-c2ncnc3[nH]ccc23)cn1 | 1.69 |
| COc1cc2nccc(Oc3ccc(NC(=O)NC4CC4)c(Cl)c3)c2cc1C(N)=O [Lenvatinib (E7080)] | 3.44 |
| OC1CCC(Nc2ncc3nc(Nc4c(F)cc(F)cc4F)n([C@H]4CCOC4)c3n2)CC1 (stereo partly specified) [Tanzisertib(CC-930)] | 2.26 |

Entries shown so far that have an aryl methoxy group:

| Compound | 'Larvae/adult' ratio |
| --- | --- |
| COc1cc2ncnc(Oc3cccc(NC(=O)Nc4cc(C(C)(C)C(F)(F)F)on4)c3)c2cc1OC | 1.61 |
| COc1cc2nccc(Oc3ccc(NC(=O)NC4CC4)c(Cl)c3)c2cc1C(N)=O [Lenvatinib (E7080)] | 3.44 |
